Where a SMILES comes first, the peptide text is derived from it. Where no end group is shown, it is not given here.
Tests used:
[1] = test system: HaCaT cell line; format: cell-based, human; settings: IC50/MIC value of the related organism
Procedure: (§1) 3T3 and HaCaT cells were grown in DMEM consisting of 1% pen/strep and 10% FBS. A total of 5 × 10^4 cells were loaded into each well of a 96-well plate and incubated at 37 °C using a 5% CO2 incubator. All samples were measured in triplicate between 0.5–32 µg/mL concentrations and incubated at 37 °C for 24 h in a 5% CO2 incubator. Only cells and Mag-2 were used as negative and positive controls, respectively. After 24 h, cell cytotoxicity was evaluated using a cell proliferation kit (MTT, Roche, Basel, Switzerland) following the kit protocol and analyzed at 550 nm and 690 nm using a microplate reader (Gen5 Synergy HT BioTek). The concentration of peptides that killed 50% of the cells was determined as the IC50 in the cytotoxicity experiments.

[2] = test system: 3t3 cell line; format: cell-based, mouse; settings: IC50/MIC value of the related organism
Procedure: as §1

| Compound | HaCaT Selectivity Index C. albicans [1] | HaCaT Selectivity Index E. coli [1] | HaCaT Selectivity Index P. aeruginosa [1] | HaCaT Selectivity Index S. aureus [1] | 3t3 Selectivity Index C. albicans [2] | 3t3 Selectivity Index E. coli [2] | 3t3 Selectivity Index P. aeruginosa [2] | 3t3 Selectivity Index S. aureus [2] |
| --- | --- | --- | --- | --- | --- | --- | --- | --- |
| RLLRLLLRLLR-NH2 [TN6] | 30.64 | 7.66 | 1.91 | 7.66 | 59.60 | 14.90 | 3.72 | 14.90 |
| CC(C)C[C@@H](NC(=O)[C@H](N)CCCNC(=N)N)C(=O)N[C@H](CC(C)C)C(=O)N[C@H](CCCNC(=N)N)C(=O)N[C@H](CC(C)C)C(=O)N[C@H](CC(C)C)C(=O)N[C@H](CC(C)C)C(=O)N[C@H](CCCNC(=N)N)C(=O)N[C@H](CC(C)C)C(=O)N[C@H](CC(C)C)C(=O)N[C@H](CCCNC(=N)N)C(N)=O [D-TN6] (HELM PEPTIDE1{[dR].[dL].[dL].[dR].[dL].[dL].[dL].[dR].[dL].[dL].[dR].[am]}$$$$V2.0) | 39.28 | 19.64 | 9.82 | 19.64 | 35.16 | 17.58 | 8.79 | 17.58 |

Source: PMC11856857, “Protease-Resistant, Broad-Spectrum Antimicrobial Peptides with High Antibacterial and Antifungal Activity” (Life, 2025)
